PubChem BioAssay AID504793 – Drosophila RNAi Screening Center – 2011

Purpose: 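Genes required for cells to halt at G2/M after double-strand DNA breaks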 (primary screen)
Cell system: Drosophila S2R+ cells
Reagents: long dsRNA against Drosophila genes, about 0.25 µg dsRNA per well
Duration: 4 days of dsRNA, then 4 hours of drug before read-out
Treatment: doxorubicin 0.5 µM for 4 hours to cause double-strand breaks, in cells also given a low, harmless dose of dsRNA against nbs to sensitise the assay
Read-out: 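Per-well count of mitotic cells stained for phospho-histone H3 after doxorubicin exposure, used as mitotic index; counts are raw and not normalised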
Direction: mitotic cells: higher = more cells in mitosis, weaker G2 arrest
Call rule: 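Genes are called active only when high mitotic counts were reproduced with independent dsRNAs and mitosis was checked for delay without damage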
Calls: active = confirmed in follow-up tests; inactive = not confirmed
The screen tested about 23,000 reagents; shown is a random part of those with a known target gene and a result. In the full data, 62 (0.27%) got an active call. 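Calls come from follow-up tests whose scores are not deposited, so confirmed genes may have low counts here; counts are not normalised per plate.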 The raw values are shown without normalisation. The numbers tell different reagents against one gene apart. A plus sign joins genes that one reagent is predicted to hit.

Gene	dsRNA no.	mitotic cells, replicate 1	Call
TM9SF4	1	6	inactive
TM9SF4	2	5	inactive
Tengl3	1	11	inactive
Tengl3	2	3	inactive
Karl	1	7	inactive
CG3655	1	5	inactive
CG3655	2	6	inactive
CG3655	3	7	inactive
CG12725	1	14	inactive
CG12725	2	5	inactive
Zip88E	1	1	inactive
Zip88E	2	6	inactive
GluRIIA	1		inactive
CG6428	1	5	inactive
CG14903	1	3	inactive
TotA	1	9	inactive
Elp4	1	10	inactive
ADD1	1	6	inactive
ADD1	2	3	inactive
CG42553	1	8	inactive
CG5567	1	6	inactive
CR30068 (retired record)	1	1	inactive
CR30068 (retired record)	2	6	inactive
Pgam5-2	1	2	inactive
CG1544	1	6	inactive
APC10	1	45	inactive
CG32808	1	6	inactive
CG32808	2	3	inactive
CG12490 + CG30265	1	3	inactive
Cyt-c1	1	7	inactive
Cyt-c1	2	10	inactive
Myt1	1	16	active
Myt1	2	8	active
CG12470	1	9	inactive
yellow-d	1	4	inactive
yellow-d	2	7	inactive
TfIIB	1	22	inactive
CG10332 (retired record) + IM18	1	13	inactive
pins	1	7	inactive
cnc	1	10	inactive
cnc	2	7	inactive
cnc	3	10	inactive
cnc	4	9	inactive
CG7889	1	9	inactive
CG7889	2	11	inactive
Sting	1	8	inactive
Sting	2	5	inactive
Iyd	1	2	inactive
Iyd	2	2	inactive
CG4660	1	14	inactive
Septin2	1	6	inactive
Def	1	7	inactive
CG18558	1	13	inactive
RnrS	1	7	inactive
RnrS	2	5	inactive
CG10352	1	8	inactive
CG33269	1	12	inactive
nis	1	1	inactive
CG17239	1	5	inactive
CrzR	1	2	inactive
CrzR	2	5	inactive
CG5412	1	3	inactive
CG13369	1	13	inactive
CG13369	2	3	inactive
Ndae1	1	10	inactive
Ndae1	2	15	inactive
stol	1	4	inactive
Ten-a	1	4	inactive
Ten-a	2	8	inactive
Ten-a	3		inactive
Ten-a	4	10	inactive
Ten-a	5	8	inactive
Ten-a	6	9	inactive
Ten-a	7	20	inactive
Ten-a	8	8	inactive
Ten-a	9	9	inactive

Hits, of those listed so far:
Gene	dsRNA no.	mitotic cells, replicate 1	Call
Myt1	1	16	active
Myt1	2	8	active
